Experimental findings from patent US20140295452A1 (PIERRE FABRE MEDICAMENT, published 2014) are described below.

By UniProt entry, the sequences of proteins in these tests, tags left out. Residues count along the entry.
UniProt P08581, residues 25-932: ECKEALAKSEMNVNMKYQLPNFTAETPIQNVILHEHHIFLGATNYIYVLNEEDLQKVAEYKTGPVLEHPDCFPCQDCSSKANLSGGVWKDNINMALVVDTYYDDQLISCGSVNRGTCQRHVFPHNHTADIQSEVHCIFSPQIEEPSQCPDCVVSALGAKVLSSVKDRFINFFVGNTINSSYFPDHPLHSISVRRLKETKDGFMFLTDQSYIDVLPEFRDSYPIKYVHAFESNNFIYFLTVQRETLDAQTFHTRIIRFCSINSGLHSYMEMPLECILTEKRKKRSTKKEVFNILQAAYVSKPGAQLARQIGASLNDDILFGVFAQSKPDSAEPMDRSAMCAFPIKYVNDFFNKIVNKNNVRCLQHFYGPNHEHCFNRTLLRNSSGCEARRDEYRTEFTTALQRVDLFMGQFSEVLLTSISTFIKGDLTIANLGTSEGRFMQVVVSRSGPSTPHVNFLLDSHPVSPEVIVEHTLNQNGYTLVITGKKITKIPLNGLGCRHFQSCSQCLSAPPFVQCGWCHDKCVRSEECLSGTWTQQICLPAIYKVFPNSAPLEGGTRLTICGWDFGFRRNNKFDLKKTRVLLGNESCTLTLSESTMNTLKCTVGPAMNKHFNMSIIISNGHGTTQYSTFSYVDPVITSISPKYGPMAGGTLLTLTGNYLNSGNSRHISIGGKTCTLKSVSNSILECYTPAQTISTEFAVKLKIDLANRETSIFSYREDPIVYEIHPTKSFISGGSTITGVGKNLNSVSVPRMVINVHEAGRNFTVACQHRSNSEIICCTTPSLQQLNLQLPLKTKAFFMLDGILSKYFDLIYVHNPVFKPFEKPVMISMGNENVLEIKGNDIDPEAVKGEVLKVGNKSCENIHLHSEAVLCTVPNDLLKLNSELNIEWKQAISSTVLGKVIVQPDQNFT

The target in test [1] is recombinant human monomeric c-Met protein (human) (UniProt P08581). The test can be described thus: ELISA on monomeric c-Met protein. A general note: ELISA stands for enzyme-linked immunosorbent assay.
The target is the same in test [2]. The test is described as follows: ELISA titration on monomeric c-Met coated at 5 µg/ml.

Results are given in words; binding and its absence hold for the method and conditions named. Some results given as binding are weak or reduced against the parent protein; the word gives no strength.

B1: murine 221C9 monoclonal antibody (antibody, V domains shown)
VH: QVQLQQPGAELVKPGASVKLSCKASGYTFTSYWMHWVKQRPGQGLEWIGEINPSNGRTHYNEKFRTKATLTVAKSSITAYMQLSTLTSEDSAVYYCARRVGYLMDYWGQGTSVTAPQ
VL: QIVLTQSPAIMSASPGEKVTMTCSASSSVSYMHWYQQKSGTSPKRLIYDTSKLASGVPARFSGSGSGTSYSLTISSMEAEDAATYYCQQWNSNPPTFGAGTKLELK
Turning to B1, the binding result in test [1] and in test [2] was “binds” each time.
